This is an account of results in article PMC7556876, “POMK regulates dystroglycan function via LARGE1-mediated elongation of matriglycan” (eLife, 2020).

Amino acid sequences for entries named in this document (tags omitted). A change or cut given only in a name is not applied to a line headed by its entry.
UniProt P19137: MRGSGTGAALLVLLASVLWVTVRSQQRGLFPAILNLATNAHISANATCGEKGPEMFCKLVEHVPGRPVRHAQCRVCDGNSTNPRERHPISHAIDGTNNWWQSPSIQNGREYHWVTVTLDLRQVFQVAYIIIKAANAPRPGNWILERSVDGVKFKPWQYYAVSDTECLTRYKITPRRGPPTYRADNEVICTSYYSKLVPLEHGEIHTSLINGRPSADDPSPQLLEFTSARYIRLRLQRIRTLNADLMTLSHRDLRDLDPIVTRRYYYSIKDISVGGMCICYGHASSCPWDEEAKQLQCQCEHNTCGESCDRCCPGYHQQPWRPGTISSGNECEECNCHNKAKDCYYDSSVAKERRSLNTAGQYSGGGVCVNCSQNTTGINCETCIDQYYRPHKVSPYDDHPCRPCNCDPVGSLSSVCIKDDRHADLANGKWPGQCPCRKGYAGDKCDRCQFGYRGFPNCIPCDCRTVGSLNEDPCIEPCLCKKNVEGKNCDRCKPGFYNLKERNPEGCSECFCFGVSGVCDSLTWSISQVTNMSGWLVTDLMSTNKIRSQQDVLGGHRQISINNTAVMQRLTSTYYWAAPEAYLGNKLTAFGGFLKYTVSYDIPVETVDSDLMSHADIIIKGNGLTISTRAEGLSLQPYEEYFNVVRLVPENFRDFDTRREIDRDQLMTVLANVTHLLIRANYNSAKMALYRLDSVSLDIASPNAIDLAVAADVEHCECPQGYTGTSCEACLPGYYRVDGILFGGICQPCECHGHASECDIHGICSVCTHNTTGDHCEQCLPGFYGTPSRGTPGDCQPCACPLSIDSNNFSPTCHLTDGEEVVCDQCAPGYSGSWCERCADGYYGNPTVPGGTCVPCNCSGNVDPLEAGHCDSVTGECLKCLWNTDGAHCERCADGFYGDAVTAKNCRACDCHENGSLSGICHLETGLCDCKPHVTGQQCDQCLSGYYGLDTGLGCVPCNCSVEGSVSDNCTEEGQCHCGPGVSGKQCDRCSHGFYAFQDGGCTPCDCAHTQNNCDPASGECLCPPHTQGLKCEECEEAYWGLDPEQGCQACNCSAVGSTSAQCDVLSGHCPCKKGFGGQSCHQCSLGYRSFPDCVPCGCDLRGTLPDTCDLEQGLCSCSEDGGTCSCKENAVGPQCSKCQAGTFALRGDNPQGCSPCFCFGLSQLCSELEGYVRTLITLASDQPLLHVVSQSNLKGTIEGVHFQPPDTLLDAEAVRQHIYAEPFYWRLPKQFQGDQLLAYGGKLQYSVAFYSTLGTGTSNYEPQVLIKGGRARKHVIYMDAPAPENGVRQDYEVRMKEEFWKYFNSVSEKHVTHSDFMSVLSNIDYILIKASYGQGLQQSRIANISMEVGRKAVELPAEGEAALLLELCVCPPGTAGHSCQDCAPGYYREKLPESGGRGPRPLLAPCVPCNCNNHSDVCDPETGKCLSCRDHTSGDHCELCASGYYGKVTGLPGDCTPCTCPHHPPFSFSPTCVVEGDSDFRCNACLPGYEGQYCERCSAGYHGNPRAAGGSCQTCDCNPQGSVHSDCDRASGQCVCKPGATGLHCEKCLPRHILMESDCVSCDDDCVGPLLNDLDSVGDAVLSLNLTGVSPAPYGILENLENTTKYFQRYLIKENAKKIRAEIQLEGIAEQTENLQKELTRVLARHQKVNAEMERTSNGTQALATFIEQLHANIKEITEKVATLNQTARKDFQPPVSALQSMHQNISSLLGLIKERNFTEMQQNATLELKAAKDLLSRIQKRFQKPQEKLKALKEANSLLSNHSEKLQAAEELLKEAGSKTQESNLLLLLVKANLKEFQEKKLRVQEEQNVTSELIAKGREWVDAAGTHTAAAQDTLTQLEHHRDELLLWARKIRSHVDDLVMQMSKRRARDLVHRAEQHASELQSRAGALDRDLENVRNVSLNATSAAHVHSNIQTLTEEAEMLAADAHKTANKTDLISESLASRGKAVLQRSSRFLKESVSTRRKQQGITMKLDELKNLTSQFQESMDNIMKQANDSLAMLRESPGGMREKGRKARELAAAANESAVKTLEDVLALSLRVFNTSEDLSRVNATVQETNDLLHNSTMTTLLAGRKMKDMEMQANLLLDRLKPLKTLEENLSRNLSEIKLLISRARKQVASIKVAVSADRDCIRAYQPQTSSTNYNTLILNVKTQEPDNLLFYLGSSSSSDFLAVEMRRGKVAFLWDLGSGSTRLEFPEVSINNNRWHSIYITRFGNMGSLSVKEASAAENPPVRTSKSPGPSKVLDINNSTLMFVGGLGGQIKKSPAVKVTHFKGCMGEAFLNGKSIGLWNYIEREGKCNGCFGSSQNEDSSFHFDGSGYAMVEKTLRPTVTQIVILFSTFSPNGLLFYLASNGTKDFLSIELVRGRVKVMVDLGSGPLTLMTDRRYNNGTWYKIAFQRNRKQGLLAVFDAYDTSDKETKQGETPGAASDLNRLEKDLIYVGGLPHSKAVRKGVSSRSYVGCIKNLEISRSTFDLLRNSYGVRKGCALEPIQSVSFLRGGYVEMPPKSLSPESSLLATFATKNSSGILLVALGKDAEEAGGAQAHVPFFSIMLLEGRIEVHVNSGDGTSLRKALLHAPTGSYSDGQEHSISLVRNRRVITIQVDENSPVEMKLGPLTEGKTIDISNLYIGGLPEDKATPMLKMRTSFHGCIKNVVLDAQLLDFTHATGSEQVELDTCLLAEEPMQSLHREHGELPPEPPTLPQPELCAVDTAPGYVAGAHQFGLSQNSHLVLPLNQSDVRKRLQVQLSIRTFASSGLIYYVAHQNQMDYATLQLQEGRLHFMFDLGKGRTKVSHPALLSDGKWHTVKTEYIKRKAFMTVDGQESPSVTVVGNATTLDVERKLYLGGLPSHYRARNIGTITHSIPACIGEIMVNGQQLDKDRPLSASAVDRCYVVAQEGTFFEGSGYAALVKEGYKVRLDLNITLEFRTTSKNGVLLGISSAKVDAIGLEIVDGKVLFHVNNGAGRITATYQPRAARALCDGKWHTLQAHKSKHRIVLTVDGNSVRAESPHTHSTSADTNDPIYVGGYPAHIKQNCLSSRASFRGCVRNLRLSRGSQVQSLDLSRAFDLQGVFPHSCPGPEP

These are yes or no findings as the source states them, for the method shown. Some results given as binding are weak or reduced against the parent protein; the word gives no strength.

For this experiment, the target named is T1, α-dystroglycan of control (Pomk^LoxP/LoxP) mouse skeletal muscle (mouse (endogenous in quadriceps muscle)) (UniProt Q62165).
T1 sequence (chain, O-mannose-linked glycan ending in full-length matriglycan): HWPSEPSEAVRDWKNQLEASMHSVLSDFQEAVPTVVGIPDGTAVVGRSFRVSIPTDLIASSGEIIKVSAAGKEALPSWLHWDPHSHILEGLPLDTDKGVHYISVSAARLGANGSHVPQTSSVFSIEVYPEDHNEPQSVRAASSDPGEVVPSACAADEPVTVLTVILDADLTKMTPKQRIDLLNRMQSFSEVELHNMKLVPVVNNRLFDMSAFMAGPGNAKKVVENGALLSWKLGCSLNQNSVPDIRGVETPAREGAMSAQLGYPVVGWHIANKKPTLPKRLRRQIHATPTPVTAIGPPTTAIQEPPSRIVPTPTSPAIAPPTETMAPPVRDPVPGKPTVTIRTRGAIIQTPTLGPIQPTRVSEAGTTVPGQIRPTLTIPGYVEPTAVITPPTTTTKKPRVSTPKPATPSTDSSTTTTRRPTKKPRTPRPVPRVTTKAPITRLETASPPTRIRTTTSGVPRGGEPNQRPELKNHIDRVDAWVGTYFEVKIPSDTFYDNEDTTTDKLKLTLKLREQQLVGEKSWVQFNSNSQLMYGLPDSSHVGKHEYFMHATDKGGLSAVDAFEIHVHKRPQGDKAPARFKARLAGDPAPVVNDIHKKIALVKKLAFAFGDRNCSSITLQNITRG
As to the kind of experiment: ELISA; solid-phase binding assay: WGA eluates diluted 1:50 in TBS coated on polystyrene ELISA microplates overnight at 4°C; laminin-111; detected with L9393 and HRP-conjugated anti-rabbit IgG; read as relative Bmax; some samples digested with α-xylosidase and β-glucuronidase (laminin binding reduced); only the binder purified. For orientation: ELISA stands for enzyme-linked immunosorbent assay.

Regarding “laminin-111 (mouse Engelbreth-Holm-Swarm (EHS) laminin) (from UniProt P19137 25-3083; P02469 22-1786; P02468 34-1607) (complex)”, the binding result was “binds”.
